From the supplement of paper PMC10338343
± gives the standard deviation. The list shows a part of the results, in another mix than the full data. The uncertainty is large for many entries.

Tested on: MILI (PIWIL2) piRISC loaded with L1MC piRNA (26 nt)
Assay: pre-steady-state target cleavage rate (min^-1); MIWI and MILI are mouse PIWI proteins and EfPiwi is from a freshwater sponge; tags in brackets are library labels; higher = faster piRNA-guided slicing of the target
Settings: guide: L1MC piRNA 5'p-UAACUAAAUACUAUGCAAGCUGUAGG
How it was run: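 Active affinity-purified piRISC carrying one synthetic guide (1 nM) was mixed with a transcribed, DNA-blocked target RNA library […] in HEPES–potassium acetate buffer at 33 °C for 0–8 or 0–960 min, with or without 500 nM GTSF1 partner protein. Uncleaved targets were then sequenced and normalised to depth and to weakly complementary targets. Three trials were pooled, and k3 was capped at 0.0001 min^-1. A burst-and-steady-state fit was applied to obtain the pre-steady-state cleavage rate.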

[1] = auxiliary factor: none (no GTSF1)
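Further: 1 nM active piRISC with 0.1 nM target library at 33 °C single turnover.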

Row | Sequence | pre-steady-state target cleavage rate [1] | pre-steady-state target cleavage rate (auxiliary factor: 500 nM mouse GTSF1)
1 | UCCUGGAUGAGCUUGCAUAGUAUUAAGAUA | 0.0012 ± 0.0047 | 
2 | UCCUGGUACAGCUUGCAUAGUAAUUAGAAA | 0.00129 ± 0.0049 | 
3 | UCCUGCUGACAGCUUGCAUAGUAUUUAGUUA |  | 0.327 ± 0.025
4 | UCCUGGAUCAGCUUGCAUAUUAUUUAGUUA | 0.00283 ± 0.0031 | 
5 | UCCUGGAUGUCGAUGCAUAGUAUAUACUUA | 0.000264 ± 0.017 | 
6 | UCCUGGAUGUCGAACGUAUGUAUAAAGUUA | < 0.0001 | 
